Assay results reported in the supplement of paper PMC7661543.
The effect of the compound repeats well; differences between the knockouts mostly do not.

Assays:
BT-20 = assay: relative cell number vs DMSO control (72 h) (% of DMSO); higher = less growth inhibition (more cells)
Description: (§1)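 QMAP-Seq: a pool of 5 breast cancer cell lines (ZR-75-1, SKBR3, HCC-38, MDA-MB-231, BT-20), each carrying 12 doxycycline-inducible Cas9 sgRNA perturbations (11 knockouts plus non-targeting sgNT), was treated with compounds for 72 h at four 10-fold doses (10 nM-10 uM or 1 nM-1 uM range). Barcodes were amplified and sequenced, and cell number was interpolated from 293T spike-in standard curves. The result is expressed as % of the median of DMSO wells. Two biological replicates.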

HCC-38 = assay: as above
Description: as §1

Cn1cnc2c(F)c(Nc3ccc(Br)cc3Cl)c(C(=O)NOCCO)cc21 [Selumetinib]
relative cell number
Details	BT-20	HCC-38
sgRNA knockout: sgATF3, 10 nM	86.7	94.4
sgRNA knockout: sgATF3, 100 nM	80	85.8
sgRNA knockout: sgATF3, 1000 nM	95.8	82.516
sgRNA knockout: sgATF3, 10000 nM	85.7	81.4
sgRNA knockout: sgATF4, 10 nM	88	93.69
sgRNA knockout: sgATF4, 100 nM	72.7	87.1
sgRNA knockout: sgATF4, 1000 nM	86.1	79.1
sgRNA knockout: sgATF4, 10000 nM	73.3	79.6
sgRNA knockout: sgATF6, 10 nM	80.7	96.7
sgRNA knockout: sgATF6, 100 nM	88.5	84.8
sgRNA knockout: sgATF6, 1000 nM	99	78.7
sgRNA knockout: sgATF6, 10000 nM	79	76.2
sgRNA knockout: sgATG7, 10 nM	94	94.7
sgRNA knockout: sgATG7, 100 nM	75.4	79.7
sgRNA knockout: sgATG7, 1000 nM	78.5	79.1
sgRNA knockout: sgATG7, 10000 nM	81.6	80.9
sgRNA knockout: sgERN1, 10 nM	87.3	96.8
sgRNA knockout: sgERN1, 100 nM	76.7	81.1
sgRNA knockout: sgERN1, 1000 nM	66.6	89.4
sgRNA knockout: sgERN1, 10000 nM	88	82.7
sgRNA knockout: sgHSF1, 10 nM	81.2	80.3
sgRNA knockout: sgHSF1, 100 nM	81.2	71.9
sgRNA knockout: sgHSF1, 1000 nM	85.3	83.1
sgRNA knockout: sgHSF1, 10000 nM	82.1	83.7
sgRNA knockout: sgHSF2, 10 nM	94.6	101
sgRNA knockout: sgHSF2, 100 nM	74.7	91.3
sgRNA knockout: sgHSF2, 1000 nM	103	80.2
sgRNA knockout: sgHSF2, 10000 nM	76.8	84.4
sgRNA knockout: sgKEAP1, 10 nM	76.3	82
sgRNA knockout: sgKEAP1, 100 nM	78.7	81.3
sgRNA knockout: sgKEAP1, 1000 nM	92.6	86.6
sgRNA knockout: sgKEAP1, 10000 nM	78.8	90.6
sgRNA knockout: sgNFE2L2, 10 nM	88.3	91.1
sgRNA knockout: sgNFE2L2, 100 nM	72.5	86.4
sgRNA knockout: sgNFE2L2, 1000 nM	100	75.5
sgRNA knockout: sgNFE2L2, 10000 nM	72.1	73.4
sgRNA knockout: sgSLC35F2, 10 nM	86.3	84
sgRNA knockout: sgSLC35F2, 100 nM	77.05	85
sgRNA knockout: sgSLC35F2, 1000 nM	98.6	80.4
sgRNA knockout: sgSLC35F2, 10000 nM	90.3	76.5
sgRNA knockout: sgXBP1, 10 nM	88	90
sgRNA knockout: sgXBP1, 100 nM	78	91.3
sgRNA knockout: sgXBP1, 1000 nM	102	78.7
sgRNA knockout: sgXBP1, 10000 nM	85	79.9

CCCc1nn(C)c2c(=O)[nH]c(-c3cc(S(=O)(=O)N4CCN(C)CC4)ccc3OCC)nc12 [Sildenafil]
relative cell number
Details	BT-20	HCC-38
sgRNA knockout: sgATF3, 10 nM	103	88.9
sgRNA knockout: sgATF3, 100 nM	95.6	108
sgRNA knockout: sgATF3, 1000 nM	93.8	111
sgRNA knockout: sgATF3, 10000 nM	93.9	113
sgRNA knockout: sgATF4, 10 nM	89.8	83.4
sgRNA knockout: sgATF4, 100 nM	98.9	98.48
sgRNA knockout: sgATF4, 1000 nM	113.5	109
sgRNA knockout: sgATF4, 10000 nM	107	129
sgRNA knockout: sgATF6, 10 nM	102	92.9
sgRNA knockout: sgATF6, 100 nM	98.8	99.8
sgRNA knockout: sgATF6, 1000 nM	97.4	91.4
sgRNA knockout: sgATF6, 10000 nM	86.5	90.8
sgRNA knockout: sgATG7, 10 nM	88.9	83.8
sgRNA knockout: sgATG7, 100 nM	104	100
sgRNA knockout: sgATG7, 1000 nM	108	111
sgRNA knockout: sgATG7, 10000 nM	106	125
sgRNA knockout: sgERN1, 10 nM	86.8	96.3
sgRNA knockout: sgERN1, 100 nM	109	99.5
sgRNA knockout: sgERN1, 1000 nM	95	112
sgRNA knockout: sgERN1, 10000 nM	93.8	111
sgRNA knockout: sgHSF1, 10 nM	96.2	101
sgRNA knockout: sgHSF1, 100 nM	99.9	117
sgRNA knockout: sgHSF1, 1000 nM	99.02	93.5
sgRNA knockout: sgHSF1, 10000 nM	111	93.4
sgRNA knockout: sgHSF2, 10 nM	86	90.4
sgRNA knockout: sgHSF2, 100 nM	104	94.7
sgRNA knockout: sgHSF2, 1000 nM	84	95.55
sgRNA knockout: sgHSF2, 10000 nM	89.7	116
sgRNA knockout: sgKEAP1, 10 nM	82.4	98.6
sgRNA knockout: sgKEAP1, 100 nM	90.6	101
sgRNA knockout: sgKEAP1, 1000 nM	102	95.8
sgRNA knockout: sgKEAP1, 10000 nM	95.4	92.5
sgRNA knockout: sgNFE2L2, 10 nM	94	84.6
sgRNA knockout: sgNFE2L2, 100 nM	106	101.17
sgRNA knockout: sgNFE2L2, 1000 nM	85.6	115
sgRNA knockout: sgNFE2L2, 10000 nM	95.9	136
sgRNA knockout: sgSLC35F2, 10 nM	108	87.4
sgRNA knockout: sgSLC35F2, 100 nM	106	102.9
sgRNA knockout: sgSLC35F2, 1000 nM	102	103
sgRNA knockout: sgSLC35F2, 10000 nM	95.5	122
sgRNA knockout: sgXBP1, 10 nM	95	82.8
sgRNA knockout: sgXBP1, 100 nM	98.4	100.4
sgRNA knockout: sgXBP1, 1000 nM	108	104
sgRNA knockout: sgXBP1, 10000 nM	110	128
